These are yes or no findings as the source states them, for the method shown. Some binding calls cover weakened binding; strength is not graded here.
Columns and labels:
[1] = target: cynomolgus monkey STEAP-1 (cynomolgus monkey); assay: FACS
[2] = target: human STEAP-1 (human) (UniProt Q9UHE8); assay: FACS on cells expressing STEAP-1
[3] = target: human STEAP-1 (human) (UniProt Q9UHE8); assay: FACS on 293 STEAP-1 NT LB50 cells
[4] = target: human STEAP-1 (human) (UniProt Q9UHE8); assay: FACS of IgG on STEAP-1 expressing cells
[5] = target: human STEAP-1 (human) (UniProt Q9UHE8); assay: FACS on LNCAP BR cells (endogenous human STEAP-1)
[6] = target: human STEAP-1 (human) (UniProt Q9UHE8); assay: FACS on 293 Steap1 LB50 cells (exogenous human STEAP-1)
[7] = target: human STEAP-1 (human) (UniProt Q9UHE8); assay: FACS on PC3 Steap1 PS5.4 cells (exogenous human STEAP-1)
[8] = target: human STEAP-1 (human) (UniProt Q9UHE8); assay: FACS on cells expressing human STEAP-1 (panel head HUMAN)
[9] = target: cynomolgus monkey STEAP-1 (cynomolgus monkey); assay: FACS on cells expressing cynomolgus monkey STEAP-1 (panel head CYNO)
[10] = target: human STEAP-1 (human) (UniProt Q9UHE8); assay: FACS of display-normalised Fab phage, aligned histograms; no cell name on the panel, traces as in FIG. 6A (LB50)

Amino acid sequences for entries named in this document (tags omitted). A change or cut given only in a name is not applied to a line headed by its entry.
UniProt Q9UHE8: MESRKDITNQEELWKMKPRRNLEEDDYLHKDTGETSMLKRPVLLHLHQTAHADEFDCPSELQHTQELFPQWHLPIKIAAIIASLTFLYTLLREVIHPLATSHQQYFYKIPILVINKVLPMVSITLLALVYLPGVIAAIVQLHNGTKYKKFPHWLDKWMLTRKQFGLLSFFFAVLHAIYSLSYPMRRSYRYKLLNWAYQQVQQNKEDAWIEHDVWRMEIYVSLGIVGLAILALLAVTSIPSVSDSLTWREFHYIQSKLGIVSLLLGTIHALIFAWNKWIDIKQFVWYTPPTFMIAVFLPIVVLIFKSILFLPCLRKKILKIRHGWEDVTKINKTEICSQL

Measured: binding

B1: 120 chimera (antibody, V domains shown)
VH: DVQVQESGPGLVKPSQSLSLTCTVTGYSITSDYAWNWIRQFPGNKLEWMGYISNSGSTSYNPSLKSRISITRDTSKNQFFLQLISVTTEDTATYYCARERNYDYDDYYYAMDYWGQGTTLTVSA
VL: DIVMSQSPSSLAVSVGEKVTMSCKSSQSLLYRSNQKNYLAWYQQKPGQSPKLLIYWASTRESGVPDRFTGSGSGTDFTLTISSVKAEDLAVYYCQQYYNYPRTFGGGTKVEIK
binds: [1] | [2] | [3] | [4] | [5] | [6] | [7] | [8] | [9]

B2: 37,48 Phage (Fab, V domains shown)
VH: EVQLVESGGGLVQPGGSLRLSCAASGYSITSDYAWNWIRQAPGKGLEWMGYISNSGSTSYNPSLKSRFTISRDNSKNTLYLQMNSLRAEDTAVYYCARERNYDYDDYYYAMDYWGQGTLVTVSS
VL: DIQMTQSPSSLSASVGDRVTITCKSSQSLLYRSNQKNYLAWYQQKPGKAPKLLIYWASTRESGVPSRFSGSGSGTDFTLTISSLQPEDFATYYCQQYYNYPRTFGQGTKVEIKR
binds: [10]
